In all, about 340,000 compounds went through this assay and about 170 (0.05%) were called active. The inconclusive results got no clear call from the source; some entries with a clear call stand among them for comparison. Calls follow the shape of the dose curve; as a rule, active = well fitted inhibition curve with a large enough effect in the signal ratio, with a control signal flat (not every such curve was filed as active); inconclusive = small, poorly fitted or top-dose-only effect, or effect the other way, or a change in a side signal; inactive = flat fitted curve, though single readings scatter; the % refers to the signal ratio. A potency beside an inconclusive call is a rough fit, not a confirmed value.
Experiment: qHTS Assay to Find Inhibitors of Chronic Active B-Cell Receptor Signaling;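 as to activity change, negative = inhibition: plate controls were basal doxycycline-induced cells for no effect and cells given 10 µM MG132 for full effect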
Conditions: ABC-DLBCL IkBa-CBG/CBR reporter, luminescence ratio (green luciferase fused to IkBa over red control in TMD8 lymphoma cells), 4 h; activity change, negative = inhibition: at 46.1 µM (top of the series) unless noted
Outline: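 Cell line TMD8 (human ABC DLBCL), stably expressing tet-inducible CBG68-IkBa fusion and CBR; IMDM/0.5% FBS; cpd up to 46 uM; dox induction, 4 h, 37C/5% CO2; dual luminescence; green/red ratio; MG132 control.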
Potency is read from the fitted curve at half-maximal effect.

Structure (SMILES)	activity change, negative = inhibition	Potency
Cc1cc2c(cc1S(=O)(=O)NCCc1ccc(Cl)cc1)OCC(=O)N2	inconclusive: -18.9%	
CCOC(=O)C1=C(O)c2ccccc2C(=O)/C1=C\c1ccc(CC)cc1		inconclusive: 5.8 µM [cytotoxic, partial curve]
Cc1ccc(CSc2nnc(-c3cccnc3)o2)cc1	inconclusive: 26.5%	
CCOc1ccc(-c2csc(NC(=O)C3CCCO3)n2)cc1 (stereo unspecified)	inconclusive: -0.918%	
CC(=O)c1ccc(-c2cccs2)s1	inconclusive: 4.57%	
CC1=C(C)/C(=N/OC(=O)c2cccc([N+](=O)[O-])c2)C=CC1=O		inconclusive: 3.66 µM [falling, partial curve]
CCN(c1ccccc1)c1ncnc2c1cnn2-c1ccc(C)cc1C	inactive: 8.96%	
N#Cc1nc(-c2ccccc2Cl)oc1N1CCN(C(=O)c2ccco2)CC1	inactive: 3.1%	
COc1ccccc1NC(=O)c1cnc(SCC(=O)N2CCCc3ccccc32)n(C)c1=O		inconclusive: 0.708 µM [rising, partial curve, poor fit]
COC(=O)Cc1[nH]n(-c2nc3ccccc3s2)c(=O)c1C(C)=Nc1ccc(OC)cc1		inconclusive: 35.5 µM [falling, partial curve]
Cc1cccc2sc(NC(=O)CN(C)S(=O)(=O)c3ccc(Br)s3)nc12	inconclusive: -16.2%	
Cc1nc2sc3c(NCc4ccco4)ncnc3c2c2c1COC(C)(C)C2	inactive: 9.46%	
CC(C)(C)c1cc(NC(=O)Nc2ccc(Cl)cc2Cl)no1	inconclusive: 4.13%	
CCC1(C)OC(=O)NN(c2ccc(C)cc2)C1(C)O (stereo unspecified)	inactive: -1.17%	
O=S(=O)(c1ccc(Br)cc1)N1CCN(Cc2ccco2)CC1	inconclusive: 0.248%	
Cc1ccc(OCCNC(=O)c2ccco2)cc1C	inconclusive: -0.0613%	
Cc1nc(-c2ccccn2)nc(SCC(=O)N2CCOCC2)c1Cl	inconclusive: 0.201%	
Cc1sc2nc(C(C)C)oc(=O)c2c1C	inconclusive: 10.5%	
CS(=O)(=O)CC(=O)Nc1ccc2nc3n(c(=O)c2c1)CCCCC3	inactive: 4.07%	
CN(C)c1ccc(/C=C2\SC(=O)N(CC(O)Cn3c4ccccc4c4ccccc43)C2=O)cc1 (stereo unspecified)	inconclusive: 0.641%	
COc1ccc(NC(=O)Cn2nnc(-c3ccccc3NS(=O)(=O)c3ccccc3)n2)cc1	inconclusive: -7.49%	

Entries of single compounds as entered above.
CCOc1ccc(-c2csc(NC(=O)C3CCCO3)n2)cc1 (stereo unspecified) reads activity change, negative = inhibition: inconclusive: -0.918%
CC(=O)c1ccc(-c2cccs2)s1 reads activity change, negative = inhibition: inconclusive: 4.57%
N#Cc1nc(-c2ccccc2Cl)oc1N1CCN(C(=O)c2ccco2)CC1 reads activity change, negative = inhibition: inactive: 3.1%

Next part

Structure (SMILES)	activity change, negative = inhibition	Potency
O=C1OCCN1C(=O)[C@H]1[C@H](c2ccccc2)C(c2cccc(Cl)c2)=NN1c1ccccc1	inactive: 0.561%	
CCOC(=O)Nc1ccc2c(c1)N(C(=O)CCN(C)C)c1ccccc1CC2	inconclusive: -0.653%	
Cc1nn(-c2ccccn2)c2c1C(=O)C(Br)CC2 (stereo unspecified)	inconclusive: 10.1%	
CCOC(=O)CNC(=S)N1CCn2c(nc3ccccc32)C1		inconclusive: 28.2 µM [falling, single point]
COc1ccccc1C(=O)NCC(=O)NCc1cc(=O)n(C)c(=O)n1C	inactive: 0.103%	
CCc1c(O)nc(SCC(=O)Nc2ccc(Br)cc2)n(-c2ccc(C)cc2)c1=O	inconclusive: 4.48%	
COc1ccc2cc(C(N)=O)/c(=N\NC(=O)c3ccccc3)oc2c1		inconclusive: 5.62 µM [falling, full curve]
O=C(c1cccs1)N1CCN(c2ccc(F)cc2)CC1	inconclusive: -1.01%	
CC(=O)c1ccc(NC(=S)Nc2ccn(Cc3ccc(Br)cc3)n2)cc1	inactive: 0.631%	
COc1ccc(N(Cc2ccccc2)S(=O)(=O)c2ccc(C)cc2)cc1	inactive: 6.17%	
O=C(N/N=C/c1c[nH]c2ccccc12)c1ccc(O)c(O)c1		inconclusive: 35.5 µM [rising, single point]
c1ccc(-c2csc3ncnc(NCC4COc5ccccc5O4)c23)cc1 (stereo unspecified)	inconclusive: -1.99%	
O=C(O)c1ccc(NNC(=S)Nc2cc(C(F)(F)F)ccc2Cl)cc1		inconclusive: 4.47 µM [rising, full curve, poor fit]
CC(C)Nc1oc(-c2cccc3ccccc23)nc1C#N	inconclusive: -1.65%	
Cc1c(C#N)c(NC(=O)CCl)n(Cc2ccccc2)c1C		inconclusive: 3.98 µM [falling, single point]
Cc1ccc(Sc2ccc(NC(=O)CCl)cc2)cc1C		inconclusive: 29.1 µM [cytotoxic, single point]
CCCCn1nc2cc(C(=O)NCC3CC3)ccc2c1OCC	inconclusive: 1.59%	
Cc1cccc(NC(=O)CC(=O)Nc2cccc(C)c2)c1	inactive: 0.407%	
OCCOCCNc1ncnc2c1cnn2-c1ccccc1	inconclusive: 18.9%	
O=C(CSc1nnc2n1CCCN2C(=S)Nc1ccc(Cl)cc1)c1ccccc1		inconclusive: 20.6 µM [falling, single point]

Source: PubChem BioAssay AID493014 (National Center for Advancing Translational Sciences (NCATS), 2011)
